Test results reported in patent publication US20110229560A1.
Results are given in words; binding and its absence hold for the method and conditions named. In cells and extracts the contact can be indirect. Some entries that bind do so weakly or less than the wild type. For some of these results: Where a sequence is shown, tags or fusion partners need not be part of it.

By UniProt entry, the sequences of proteins in these tests, tags left out. Where a name states a change or a piece, a line headed by the entry shows the natural chain unless it says otherwise.
UniProt Q86WI3: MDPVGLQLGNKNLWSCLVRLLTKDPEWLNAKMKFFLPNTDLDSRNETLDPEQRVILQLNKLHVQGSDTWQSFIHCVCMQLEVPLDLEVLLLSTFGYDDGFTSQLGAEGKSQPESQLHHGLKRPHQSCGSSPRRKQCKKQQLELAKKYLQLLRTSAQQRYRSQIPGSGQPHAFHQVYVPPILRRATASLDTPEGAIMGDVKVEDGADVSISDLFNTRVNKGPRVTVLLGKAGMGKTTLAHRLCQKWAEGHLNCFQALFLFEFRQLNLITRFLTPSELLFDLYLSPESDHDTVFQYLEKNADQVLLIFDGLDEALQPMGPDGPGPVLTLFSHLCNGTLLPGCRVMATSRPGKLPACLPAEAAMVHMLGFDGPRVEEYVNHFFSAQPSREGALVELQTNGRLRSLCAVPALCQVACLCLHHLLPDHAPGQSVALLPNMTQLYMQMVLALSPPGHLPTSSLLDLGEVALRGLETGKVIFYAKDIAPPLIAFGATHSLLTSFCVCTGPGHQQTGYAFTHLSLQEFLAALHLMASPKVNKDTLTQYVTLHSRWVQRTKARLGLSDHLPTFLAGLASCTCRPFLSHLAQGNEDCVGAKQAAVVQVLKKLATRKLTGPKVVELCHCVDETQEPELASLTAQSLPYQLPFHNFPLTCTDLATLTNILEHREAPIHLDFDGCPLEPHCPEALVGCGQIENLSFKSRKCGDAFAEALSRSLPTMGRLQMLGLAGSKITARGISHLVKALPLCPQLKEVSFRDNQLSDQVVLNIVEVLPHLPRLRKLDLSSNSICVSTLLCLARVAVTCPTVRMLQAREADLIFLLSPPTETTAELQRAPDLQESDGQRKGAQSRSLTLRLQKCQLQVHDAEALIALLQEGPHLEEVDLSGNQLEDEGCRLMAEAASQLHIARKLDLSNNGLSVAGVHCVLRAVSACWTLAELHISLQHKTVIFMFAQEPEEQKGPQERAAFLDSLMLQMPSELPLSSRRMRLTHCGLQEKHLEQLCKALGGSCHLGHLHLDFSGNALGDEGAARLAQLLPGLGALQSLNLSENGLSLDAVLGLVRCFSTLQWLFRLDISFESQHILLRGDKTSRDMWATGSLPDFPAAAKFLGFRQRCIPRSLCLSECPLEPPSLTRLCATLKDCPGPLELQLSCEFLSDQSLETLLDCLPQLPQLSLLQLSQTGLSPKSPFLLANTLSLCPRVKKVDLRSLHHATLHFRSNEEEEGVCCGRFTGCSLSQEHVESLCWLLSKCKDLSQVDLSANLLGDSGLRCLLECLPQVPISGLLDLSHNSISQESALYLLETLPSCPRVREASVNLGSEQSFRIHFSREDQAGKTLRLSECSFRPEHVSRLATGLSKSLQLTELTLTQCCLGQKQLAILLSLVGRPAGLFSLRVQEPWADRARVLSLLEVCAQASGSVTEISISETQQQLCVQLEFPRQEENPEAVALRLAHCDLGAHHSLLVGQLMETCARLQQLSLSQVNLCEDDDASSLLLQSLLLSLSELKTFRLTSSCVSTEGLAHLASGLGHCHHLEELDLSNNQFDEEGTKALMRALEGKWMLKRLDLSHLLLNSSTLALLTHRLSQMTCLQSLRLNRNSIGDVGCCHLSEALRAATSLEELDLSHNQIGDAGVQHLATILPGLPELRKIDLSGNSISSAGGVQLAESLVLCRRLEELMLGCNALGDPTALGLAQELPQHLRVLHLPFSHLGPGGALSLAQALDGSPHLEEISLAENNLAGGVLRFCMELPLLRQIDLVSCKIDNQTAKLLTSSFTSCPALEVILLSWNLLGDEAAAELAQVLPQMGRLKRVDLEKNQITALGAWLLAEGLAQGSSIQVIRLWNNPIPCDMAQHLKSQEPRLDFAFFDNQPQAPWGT

Tests used:
[1] = biological target: T1, MDA5 (expressed in 293T cells) (UniProt Q9BYX4); experiment: restatement of the co-IP results
T1 sequence (looked up): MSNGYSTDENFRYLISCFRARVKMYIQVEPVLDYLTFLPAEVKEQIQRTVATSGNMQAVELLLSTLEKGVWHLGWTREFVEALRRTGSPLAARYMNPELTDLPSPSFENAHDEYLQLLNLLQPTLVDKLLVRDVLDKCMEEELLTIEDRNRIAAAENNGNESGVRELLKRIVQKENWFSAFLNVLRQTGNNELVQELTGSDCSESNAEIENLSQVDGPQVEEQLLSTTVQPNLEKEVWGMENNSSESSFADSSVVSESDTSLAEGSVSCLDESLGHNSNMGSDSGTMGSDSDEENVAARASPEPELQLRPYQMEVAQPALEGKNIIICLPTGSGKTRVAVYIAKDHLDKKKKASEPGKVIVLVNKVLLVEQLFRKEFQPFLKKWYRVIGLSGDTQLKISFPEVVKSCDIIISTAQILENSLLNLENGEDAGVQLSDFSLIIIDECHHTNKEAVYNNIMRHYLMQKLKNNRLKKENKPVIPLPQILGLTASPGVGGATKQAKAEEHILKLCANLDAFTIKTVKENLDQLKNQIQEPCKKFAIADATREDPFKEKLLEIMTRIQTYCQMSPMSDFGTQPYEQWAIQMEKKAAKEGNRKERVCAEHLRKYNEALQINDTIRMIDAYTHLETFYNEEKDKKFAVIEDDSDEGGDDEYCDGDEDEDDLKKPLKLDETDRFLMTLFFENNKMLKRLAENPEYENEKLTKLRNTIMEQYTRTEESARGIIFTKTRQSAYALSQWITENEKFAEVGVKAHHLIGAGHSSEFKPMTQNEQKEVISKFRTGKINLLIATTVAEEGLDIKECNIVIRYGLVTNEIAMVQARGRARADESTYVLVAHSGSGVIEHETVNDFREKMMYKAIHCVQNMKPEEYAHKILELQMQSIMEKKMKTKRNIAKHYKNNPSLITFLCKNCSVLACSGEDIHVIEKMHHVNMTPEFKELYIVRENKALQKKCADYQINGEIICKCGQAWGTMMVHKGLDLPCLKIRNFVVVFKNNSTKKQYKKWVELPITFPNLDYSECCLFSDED

[2] = biological target: T2, Flag-tagged IKKβ (full length) (UniProt O14920); experiment: restatement of the co-IP results
T2 sequence (looked up): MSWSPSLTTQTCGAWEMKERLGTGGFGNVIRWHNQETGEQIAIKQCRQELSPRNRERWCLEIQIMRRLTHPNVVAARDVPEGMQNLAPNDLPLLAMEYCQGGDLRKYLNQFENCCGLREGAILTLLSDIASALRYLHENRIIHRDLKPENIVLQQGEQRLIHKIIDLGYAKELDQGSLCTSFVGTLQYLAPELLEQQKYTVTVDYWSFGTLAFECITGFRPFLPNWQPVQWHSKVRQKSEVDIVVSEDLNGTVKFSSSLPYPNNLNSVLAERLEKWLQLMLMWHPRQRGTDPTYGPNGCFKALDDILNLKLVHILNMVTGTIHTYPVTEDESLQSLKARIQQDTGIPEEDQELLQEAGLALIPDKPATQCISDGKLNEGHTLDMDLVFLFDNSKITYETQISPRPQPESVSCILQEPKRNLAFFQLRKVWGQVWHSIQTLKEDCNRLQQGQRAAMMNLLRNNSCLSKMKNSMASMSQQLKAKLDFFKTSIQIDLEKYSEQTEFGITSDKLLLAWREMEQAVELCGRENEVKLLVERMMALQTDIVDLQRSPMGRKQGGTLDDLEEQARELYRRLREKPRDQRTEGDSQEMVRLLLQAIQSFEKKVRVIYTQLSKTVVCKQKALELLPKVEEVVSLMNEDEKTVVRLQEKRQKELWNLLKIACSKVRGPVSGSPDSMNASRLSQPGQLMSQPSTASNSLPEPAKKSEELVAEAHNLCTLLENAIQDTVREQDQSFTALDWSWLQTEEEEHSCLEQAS

[3] = biological target: T3, Flag-RIG-I (UniProt O95786); experiment: restatement of the co-IP results
T3 sequence (looked up): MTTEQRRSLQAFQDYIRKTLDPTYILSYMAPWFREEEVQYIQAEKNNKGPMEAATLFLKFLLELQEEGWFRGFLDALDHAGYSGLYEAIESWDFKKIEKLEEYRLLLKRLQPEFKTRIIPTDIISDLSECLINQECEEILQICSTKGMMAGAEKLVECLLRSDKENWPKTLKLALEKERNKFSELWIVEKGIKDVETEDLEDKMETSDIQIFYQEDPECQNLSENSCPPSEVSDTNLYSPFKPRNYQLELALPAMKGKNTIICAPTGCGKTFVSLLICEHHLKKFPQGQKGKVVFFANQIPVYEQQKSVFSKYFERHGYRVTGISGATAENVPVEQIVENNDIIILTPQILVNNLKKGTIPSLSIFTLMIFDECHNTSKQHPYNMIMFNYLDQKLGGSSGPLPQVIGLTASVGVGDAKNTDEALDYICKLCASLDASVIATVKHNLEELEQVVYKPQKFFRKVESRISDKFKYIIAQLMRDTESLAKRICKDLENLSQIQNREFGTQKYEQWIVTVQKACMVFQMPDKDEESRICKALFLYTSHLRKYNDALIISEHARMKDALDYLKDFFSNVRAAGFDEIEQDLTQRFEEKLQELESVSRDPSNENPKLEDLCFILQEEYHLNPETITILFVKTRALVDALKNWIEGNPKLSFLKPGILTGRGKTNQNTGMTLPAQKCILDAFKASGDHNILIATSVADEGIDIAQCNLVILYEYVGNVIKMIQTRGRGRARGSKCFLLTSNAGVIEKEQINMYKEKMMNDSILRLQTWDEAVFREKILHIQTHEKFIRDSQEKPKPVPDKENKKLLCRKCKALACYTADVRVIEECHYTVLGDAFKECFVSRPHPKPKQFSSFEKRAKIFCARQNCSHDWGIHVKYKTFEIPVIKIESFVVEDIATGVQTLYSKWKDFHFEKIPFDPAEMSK

[4] = biological target: T4, IKKβ-KD (amino-terminal kinase domain construct of IKKβ, Flag-tagged) (UniProt O14920); experiment: co-IP (anti-Flag beads) and Western blot (anti-HA), transfected 293T cells
T4 sequence (looked up): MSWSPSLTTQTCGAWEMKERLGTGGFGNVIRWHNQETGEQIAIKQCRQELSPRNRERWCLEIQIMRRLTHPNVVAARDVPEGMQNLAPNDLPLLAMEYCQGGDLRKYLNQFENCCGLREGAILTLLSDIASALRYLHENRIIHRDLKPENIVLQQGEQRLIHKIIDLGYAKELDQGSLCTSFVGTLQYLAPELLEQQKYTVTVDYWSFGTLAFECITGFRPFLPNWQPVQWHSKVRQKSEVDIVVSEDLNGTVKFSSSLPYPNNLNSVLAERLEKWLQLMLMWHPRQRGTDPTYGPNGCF

Measured: binding

HA-tagged NLRC5 (human NLRC5, full length) (from UniProt Q86WI3 1-1866)
binds: all assays above
